Experimental data as given in the supplement of paper PMC12009310.
Where a name gives a salt, the structure may show the parent alone. ± gives the standard deviation of the averaged measurements. This is one part of the list. Part of the spread comes from offsets between plates or batches.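 The cells are a mouse kidney inner medullary collecting duct line, silenced either for the ciliary gene Rpgrip1l or with a non-targeting control siRNA.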

Assays:
mIMCD3 [1] = assay: robust z score of cell number vs plate controls; higher = more cells (less cytotoxic); conditions: 10 µM, 48 h
mIMCD3 [2] = assay: robust z score of cilia incidence (% cells with single cilium) vs plate controls; higher = more ciliated cells; conditions: 10 µM; 48 h; siRNA: siScr
mIMCD3 [3] = assay: robust z score of cilia incidence (% cells with single cilium) vs plate controls; higher = more ciliated cells (rescue of cilia loss); conditions: 10 µM; 48 h; siRNA: siRpgrip1l

| SMILES | robust z score of cell number (mIMCD3 [1]; siRNA: siRpgrip1l) | robust z score of cell number (mIMCD3 [1]; siRNA: siScr) | robust z score of cilia incidence (mIMCD3 [2]) | robust z score of cilia incidence (mIMCD3 [3]) |
| --- | --- | --- | --- | --- |
| CC1=NN(c2ccccc2)C(=O)C1 | -2.55 ± 0.31 | 1.66 ± 1.1 | 1.8 ± 1.5 | -4.76 ± 1.9 |
| CN(CCOc1ccc(C[C@H](Nc2ccccc2C(=O)c2ccccc2)C(=O)O)cc1)c1ccccn1 | -65.3 ± 62 | -24.1 ± 5.1 | -24.3 ± 8.1 | -392 ± 240 |
| CC1CCN(CC[C@H]2CCCN2S(=O)(=O)c2cccc(O)c2)CC1 | -11.4 ± 16 | -2.82 ± 2.2 | 1.63 ± 3.3 | -119 ± 100 |
| Cc1ccc(=O)n(-c2ccccc2)c1 [Pirfenidone] | -9.6 ± 3.9 | -0.363 ± 5.4 | -0.36 ± 1.8 | -17.3 ± 1.5 |
| CC(=Nc1ccccc1N)c1c(C)cc(=O)n(O)c1O | -24.9 ± 28 | -7.14 ± 4.7 | 7.46 ± 3.9 | -5.66 ± 4.1 |
| COc1ccc(-c2nc(C(=O)N3CCN(C)CC3)sc2-c2ccc(OC)cc2)cc1 | -134 ± 130 | -36.2 ± 6.5 | -37.2 ± 10 | -503 ± 310 |
| CCOc1cc(CC(=O)N[C@@H](CC(C)C)c2ccccc2N2CCCCC2)ccc1C(=O)O [Repaglinide] | -3.92 ± 0.26 | -5.12 ± 3 | 7.87 ± 1.5 | -8.31 ± 4.5 |
| CN(C)CCCN1c2ccccc2CCc2ccc(Cl)cc21 [Clomipramine hydrochloride] | -15 ± 14 | -16.7 ± 12 | -0.808 ± 0.8 | -4.28 ± 5.3 |
| C[C@H](NC(=O)/C(C#N)=C/c1ccc(O)c(O)c1)c1ccccc1 [Tyrphostin B44, (+) enantiomer] | -35.2 ± 32 | -23.9 ± 20 | -1.6 ± 1.5 | -6.86 ± 3.4 |
| CCCN(CC1CC1)c1nc(C)nc(Nc2c(Cl)cc(Cl)cc2Cl)c1Cl | -189 ± 210 | -44.3 ± 10 | -23.9 ± 12 | -465 ± 350 |
| Cc1noc(NS(=O)(=O)c2cccc3c(N(C)C)cccc23)c1C | -33 ± 40 | -3.24 ± 1.7 | -0.918 ± 3.3 | -159 ± 110 |
| COc1ccc(C(=O)Nc2sc3c(c2C(N)=O)CCCC3)cc1OC | -8.67 ± 7.2 | -47.1 ± 50 | -3.78 ± 3 | -13.5 ± 4.9 |
| Nc1nc(NCC2CCC(CNS(=O)(=O)c3cccc4ccccc34)CC2)nc2ccccc12 (stereo not given) | -2.69 ± 4.9 | -1.15 ± 3.7 | 1.54 ± 0.62 | -4.79 ± 4.5 |
| CC(C)(C)c1ccc(/C=C/C(=O)Nc2ccc3c(c2)OCCO3)cc1 | -29.8 ± 15 | -27 ± 4.7 | -30.8 ± 23 | -27.5 ± 13 |
| CN1[C@@H](CC(=O)c2ccccc2)CCC[C@H]1C[C@H](O)c1ccccc1 [Lobeline hydrochloride] | 0.624 ± 2.4 | -4.98 ± 4.5 | -0.905 ± 4.6 | -7.28 ± 2.6 |
| COc1ccc(CCN(C)CCCN2CCc3cc(OC)c(OC)cc3CC2=O)cc1OC [Zatebradine hydrochloride] | 0.661 ± 2 | -4.86 ± 6 | -0.247 ± 0.29 | -10.3 ± 7.2 |
| CCc1cc(C(C)=O)c(O)cc1OCCCCCC(C)(C)c1nn[nH]n1 | -24.9 ± 16 | -34.8 ± 18 | -1.61 ± 4.1 | -18.3 ± 22 |
| COC(=O)c1sccc1S(=O)(=O)Nc1ccc(Nc2ccccc2)cc1OC | -29.9 ± 34 | -10.6 ± 7.9 | -12 ± 9.9 | -26.6 ± 15 |
| Nc1nc2ccc(Cl)cc2c2nc(-c3ccco3)nn12 | -9.72 ± 5.7 | -11.1 ± 1.8 | -5 ± 10 | -8.53 ± 10 |
| CCN(c1ccccc1)c1cc(=NC)n(C)c(C)n1 | -18.5 ± 1.2 | -18.2 ± 9.7 | -23.2 ± 7 | -19.8 ± 2.1 |
| CNS(=O)(=O)Cc1ccc2[nH]cc(CCN(C)C)c2c1 [Sumatriptan succinate] | -4.36 ± 2.9 | -0.573 ± 3.4 | -0.313 ± 1.1 | -4.62 ± 0.18 |
| CCCc1c(OCCCOc2ccc(OCC(=O)O)cc2)ccc(C(C)=O)c1O | -24.6 ± 24 | -21.8 ± 14 | 1.36 ± 3.4 | -16.9 ± 3.6 |
| CC(Cc1ccc(O)c(O)c1)(NN)C(=O)O [(S)-(-)-Carbidopa] | -0.664 ± 1.7 | -7.41 ± 9.1 | 1.64 ± 1.7 | -1.89 ± 3.8 |
| C[C@@]1(O)[C@H](O)[C@@H](CO)O[C@H]1n1cnc2c(NC3CCCC3)nc(Cl)nc21 | -2.97 ± 2.4 | -3.04 ± 1.7 | -1.11 ± 1.1 | -9.45 ± 5.7 |
| Oc1ccc(-c2nc(-c3ccc(F)cc3)c(-c3ccncc3)[nH]2)cc1 | -235 ± 160 | -28.8 ± 6.5 | -7.44 ± 9.6 | -22.8 ± 6.5 |
| Cc1cc(C)c(/C=C2\C(=O)Nc3ccccc32)[nH]1 | -8.97 ± 7 | -1.32 ± 3.5 | 0.648 ± 1.4 | -5.05 ± 1.3 |
| O=S(=O)(NCCNC/C=C/c1ccc(Br)cc1)c1cccc2cnccc12 [H 89 dihydrochloride] | -23.6 ± 22 | -10.8 ± 7.6 | -8.91 ± 5.8 | -13.6 ± 5.8 |
| Nc1ccc(-c2nc3ccc(-c4nc5ccc(N)cc5[nH]4)cc3[nH]2)cc1 | -4.75 ± 3.5 | -1.93 ± 0.25 | 0.741 ± 0.58 | -8.28 ± 6.4 |
| COc1ccc2[nH]cc(CCNC(C)=O)c2c1 [Melatonin] | -7.39 ± 7.1 | -4.87 ± 0.57 | -12.3 ± 3.1 | -7.96 ± 2.8 |
| COc1cc(C(=O)OCCCN2CCCN(CCCOC(=O)c3cc(OC)c(OC)c(OC)c3)CC2)cc(OC)c1OC [Dilazep dihydrochloride] | -79 ± 70 | -48.7 ± 34 | -24.2 ± 6.1 | -32.3 ± 18 |

3 structures from above, arranged by number of heavy atoms, low to high:

| SMILES | robust z score of cell number (mIMCD3 [1]; siRNA: siRpgrip1l) | robust z score of cell number (mIMCD3 [1]; siRNA: siScr) | robust z score of cilia incidence (mIMCD3 [2]) | robust z score of cilia incidence (mIMCD3 [3]) |
| --- | --- | --- | --- | --- |
| CCN(c1ccccc1)c1cc(=NC)n(C)c(C)n1 | -18.5 ± 1.2 | -18.2 ± 9.7 | -23.2 ± 7 | -19.8 ± 2.1 |
| COc1ccc(-c2nc(C(=O)N3CCN(C)CC3)sc2-c2ccc(OC)cc2)cc1 | -134 ± 130 | -36.2 ± 6.5 | -37.2 ± 10 | -503 ± 310 |
| COc1ccc(CCN(C)CCCN2CCc3cc(OC)c(OC)cc3CC2=O)cc1OC [Zatebradine hydrochloride] | 0.661 ± 2 | -4.86 ± 6 | -0.247 ± 0.29 | -10.3 ± 7.2 |
